Article PMC5472658
These are yes or no findings as the source states them, for the method shown. Binding seen in cells or lysates may run through a third protein. Some results given as binding are weak or reduced against the parent protein; the word gives no strength. Tags and fused reporters may be left off the sequences shown. Values belong to the substance of their own block, whether it stands above or below them.

The chains behind the UniProt entries cited, without tags or fusion partners. Where a name states a change or a piece, a line headed by the entry shows the natural chain unless it says otherwise.
UniProt P49840: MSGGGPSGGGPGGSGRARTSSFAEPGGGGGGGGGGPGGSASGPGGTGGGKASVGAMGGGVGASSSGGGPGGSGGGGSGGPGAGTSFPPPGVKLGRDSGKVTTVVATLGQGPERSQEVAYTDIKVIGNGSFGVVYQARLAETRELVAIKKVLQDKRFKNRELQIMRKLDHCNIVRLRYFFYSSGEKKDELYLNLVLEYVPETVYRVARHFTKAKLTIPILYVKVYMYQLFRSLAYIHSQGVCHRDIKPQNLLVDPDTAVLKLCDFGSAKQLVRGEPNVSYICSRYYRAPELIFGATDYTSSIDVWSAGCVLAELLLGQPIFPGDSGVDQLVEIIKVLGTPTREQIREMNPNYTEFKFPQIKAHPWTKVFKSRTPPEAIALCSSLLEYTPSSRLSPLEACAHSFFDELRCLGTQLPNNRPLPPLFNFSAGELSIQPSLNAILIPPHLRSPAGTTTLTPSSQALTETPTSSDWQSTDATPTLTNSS
UniProt P49841: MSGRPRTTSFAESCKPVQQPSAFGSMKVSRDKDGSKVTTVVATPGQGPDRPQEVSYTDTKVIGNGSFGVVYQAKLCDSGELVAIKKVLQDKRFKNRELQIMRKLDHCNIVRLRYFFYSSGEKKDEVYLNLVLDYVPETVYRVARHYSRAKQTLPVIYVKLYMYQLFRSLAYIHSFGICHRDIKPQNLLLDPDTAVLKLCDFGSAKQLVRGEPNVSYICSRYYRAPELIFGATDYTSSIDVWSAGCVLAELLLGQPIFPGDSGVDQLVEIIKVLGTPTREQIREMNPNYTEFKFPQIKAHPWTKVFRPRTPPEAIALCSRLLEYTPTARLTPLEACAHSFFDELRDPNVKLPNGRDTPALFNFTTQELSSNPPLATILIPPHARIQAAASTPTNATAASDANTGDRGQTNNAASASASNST
UniProt Q2NL51: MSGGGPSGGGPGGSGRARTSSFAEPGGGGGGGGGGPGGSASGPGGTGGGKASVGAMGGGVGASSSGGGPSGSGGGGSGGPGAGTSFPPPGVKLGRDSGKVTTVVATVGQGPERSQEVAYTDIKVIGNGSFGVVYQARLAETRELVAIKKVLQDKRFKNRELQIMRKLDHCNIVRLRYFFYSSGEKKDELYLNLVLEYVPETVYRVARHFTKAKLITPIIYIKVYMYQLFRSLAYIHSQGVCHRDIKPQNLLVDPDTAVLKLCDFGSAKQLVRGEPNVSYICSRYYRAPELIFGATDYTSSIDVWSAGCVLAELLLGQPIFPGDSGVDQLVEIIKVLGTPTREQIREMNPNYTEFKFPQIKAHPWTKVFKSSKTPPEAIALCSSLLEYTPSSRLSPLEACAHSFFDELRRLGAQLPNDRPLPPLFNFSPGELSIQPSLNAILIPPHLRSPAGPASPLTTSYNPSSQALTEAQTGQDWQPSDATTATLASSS
UniProt P18266: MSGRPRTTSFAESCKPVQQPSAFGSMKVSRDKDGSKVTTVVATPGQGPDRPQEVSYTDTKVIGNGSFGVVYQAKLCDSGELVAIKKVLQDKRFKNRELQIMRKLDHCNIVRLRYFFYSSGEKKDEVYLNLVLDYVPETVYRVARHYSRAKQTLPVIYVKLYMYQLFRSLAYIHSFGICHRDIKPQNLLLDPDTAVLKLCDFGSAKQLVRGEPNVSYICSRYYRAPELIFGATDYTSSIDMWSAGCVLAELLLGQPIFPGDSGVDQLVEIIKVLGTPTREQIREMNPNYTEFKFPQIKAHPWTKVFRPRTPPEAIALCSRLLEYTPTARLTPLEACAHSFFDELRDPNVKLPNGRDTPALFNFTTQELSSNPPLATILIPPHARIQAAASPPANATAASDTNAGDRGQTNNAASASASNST

Assays:
[1] = target: T1, HA-tagged BIO-Arc, rat (rat) (UniProt Q63053); experiment: co-IP; avi-tag co-precipitation: HEK293 co-transfected with HA-BIO-Arc, BirA and FLAG-GSK3α or FLAG-GSK3β (wildtype or kinase dead), lysed in avi-tag pulldown buffer, Arc complexes captured on streptavidin-coated beads; blot with anti-FLAG and anti-HA
T1 sequence (chain, biotin on the avi-tag): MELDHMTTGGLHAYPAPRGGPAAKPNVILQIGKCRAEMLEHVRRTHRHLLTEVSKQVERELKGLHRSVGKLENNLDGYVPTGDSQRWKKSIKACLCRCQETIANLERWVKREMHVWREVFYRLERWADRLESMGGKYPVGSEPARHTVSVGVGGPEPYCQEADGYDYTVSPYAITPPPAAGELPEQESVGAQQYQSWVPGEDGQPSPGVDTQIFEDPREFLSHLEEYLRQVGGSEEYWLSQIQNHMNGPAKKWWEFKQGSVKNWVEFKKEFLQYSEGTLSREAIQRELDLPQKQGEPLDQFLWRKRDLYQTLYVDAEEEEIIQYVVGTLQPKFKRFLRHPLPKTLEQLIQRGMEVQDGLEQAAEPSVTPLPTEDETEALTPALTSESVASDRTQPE

[2] = target: T2, BIO-Arc, rat (N-terminally avi-tagged, biotinylated Arc) (rat) (UniProt Q63053); experiment: pull-down; avi-tag pulldown: biotinylated Arc isolated from HEK293 on streptavidin-coated beads, rotated with mouse hippocampus homogenate 4 h at 4°C in 20 mM HEPES pH 7.3, 150 mM KCl, 0.25% NP-40; blot with anti-GSK3α/β; only the target purified
T2 sequence (chain, biotin on the avi-tag): T1 sequence (chain, biotin on the avi-tag)

[3] = target: T3, BIO-Arc, human (N-terminally avi-tagged, biotinylated Arc) (human) (UniProt Q7LC44); experiment: as above
T3 sequence (chain, biotin on the avi-tag): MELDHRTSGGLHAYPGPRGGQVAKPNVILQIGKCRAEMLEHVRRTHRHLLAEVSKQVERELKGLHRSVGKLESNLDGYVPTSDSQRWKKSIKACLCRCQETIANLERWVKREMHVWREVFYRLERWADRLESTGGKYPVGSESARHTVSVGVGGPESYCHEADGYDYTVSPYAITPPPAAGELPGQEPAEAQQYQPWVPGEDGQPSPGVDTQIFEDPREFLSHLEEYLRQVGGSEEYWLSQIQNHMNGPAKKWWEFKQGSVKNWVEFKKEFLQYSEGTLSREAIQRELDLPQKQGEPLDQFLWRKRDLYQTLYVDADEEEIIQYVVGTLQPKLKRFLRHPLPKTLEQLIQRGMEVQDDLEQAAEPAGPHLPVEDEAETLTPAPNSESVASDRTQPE

[4] = target: T4, GST-fused Arc (activity-regulated cytoskeleton-associated protein), rat (rat) (UniProt Q63053); experiment: pull-down; GST-Arc on glutathione Sepharose 4B beads incubated 1 h with lysate from the rat hippocampal CA region (1 mg/ml) in 50 mM Tris-HCl pH 7.4, 150 mM NaCl, 1 mM EDTA, 0.5% NP-40; blot with anti-GSK3α/β; only the target purified
T4 sequence: T1 sequence (chain, biotin on the avi-tag)

binding [1]: binds
Substance: FLAG-GSK3α K148A (kinase dead) (from UniProt P49840 1-483) (enzyme)

binding [1]: binds
Substance: FLAG-GSK3β K85A (kinase dead) (from UniProt P49841 1-420) (enzyme)

binding [2]: binds
binding [3]: binds
Substance: Glycogen synthase kinase 3α (GSK3α), endogenous in mouse hippocampus (from UniProt Q2NL51 1-490) (enzyme)

binding [4]: binds
Substance: Glycogen synthase kinase 3β (GSK3β), endogenous in rat hippocampus (from UniProt P18266 1-420) (enzyme)
